No constants are given. Whether binding was seen depends on the method and setting. In cells and extracts the contact can be indirect. Some results given as binding are weak or reduced against the parent protein; the word gives no strength. For part of these data: Tags and fused reporters may be left off the sequences shown.

Chains of the proteins cited; added tags and fusions are not shown. Lines headed by an entry give the natural chain unless they say otherwise; changes in a name come on top. A line that says so, or that is headed by a name, gives the form on record, which may keep a tag or linker. Residues count along the entry.
UniProt Q9NQC3: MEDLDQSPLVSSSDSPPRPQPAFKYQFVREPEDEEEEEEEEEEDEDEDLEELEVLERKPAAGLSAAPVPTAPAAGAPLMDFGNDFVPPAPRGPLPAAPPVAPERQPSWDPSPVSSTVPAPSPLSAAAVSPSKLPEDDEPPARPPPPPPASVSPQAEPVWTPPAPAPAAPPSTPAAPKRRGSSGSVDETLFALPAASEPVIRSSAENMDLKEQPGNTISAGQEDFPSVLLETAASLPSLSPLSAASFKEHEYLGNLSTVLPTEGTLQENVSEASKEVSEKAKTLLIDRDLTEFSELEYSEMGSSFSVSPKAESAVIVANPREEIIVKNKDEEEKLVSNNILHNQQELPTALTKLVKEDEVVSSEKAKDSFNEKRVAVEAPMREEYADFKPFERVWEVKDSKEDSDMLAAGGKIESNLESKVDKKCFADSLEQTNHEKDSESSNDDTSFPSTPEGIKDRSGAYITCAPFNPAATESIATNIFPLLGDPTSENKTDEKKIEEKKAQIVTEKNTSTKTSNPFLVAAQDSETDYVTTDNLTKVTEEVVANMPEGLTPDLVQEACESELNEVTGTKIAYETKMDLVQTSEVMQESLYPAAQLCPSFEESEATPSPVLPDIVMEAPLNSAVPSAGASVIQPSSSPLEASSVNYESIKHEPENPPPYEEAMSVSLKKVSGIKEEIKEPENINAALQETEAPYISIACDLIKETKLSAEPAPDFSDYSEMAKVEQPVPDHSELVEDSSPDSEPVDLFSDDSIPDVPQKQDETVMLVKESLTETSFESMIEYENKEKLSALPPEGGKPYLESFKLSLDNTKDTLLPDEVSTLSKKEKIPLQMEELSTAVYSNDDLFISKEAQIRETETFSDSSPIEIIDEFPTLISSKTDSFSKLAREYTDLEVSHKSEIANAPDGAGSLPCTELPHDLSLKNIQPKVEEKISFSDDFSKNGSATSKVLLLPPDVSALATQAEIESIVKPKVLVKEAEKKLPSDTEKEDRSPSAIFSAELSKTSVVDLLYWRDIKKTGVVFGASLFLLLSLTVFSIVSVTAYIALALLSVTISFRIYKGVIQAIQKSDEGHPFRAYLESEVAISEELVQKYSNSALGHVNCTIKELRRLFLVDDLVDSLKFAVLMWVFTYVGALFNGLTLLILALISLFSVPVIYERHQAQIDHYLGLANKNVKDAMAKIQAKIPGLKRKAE
Flag-RTN4B (Reticulon 4B) (Q9NQC3-2, form named): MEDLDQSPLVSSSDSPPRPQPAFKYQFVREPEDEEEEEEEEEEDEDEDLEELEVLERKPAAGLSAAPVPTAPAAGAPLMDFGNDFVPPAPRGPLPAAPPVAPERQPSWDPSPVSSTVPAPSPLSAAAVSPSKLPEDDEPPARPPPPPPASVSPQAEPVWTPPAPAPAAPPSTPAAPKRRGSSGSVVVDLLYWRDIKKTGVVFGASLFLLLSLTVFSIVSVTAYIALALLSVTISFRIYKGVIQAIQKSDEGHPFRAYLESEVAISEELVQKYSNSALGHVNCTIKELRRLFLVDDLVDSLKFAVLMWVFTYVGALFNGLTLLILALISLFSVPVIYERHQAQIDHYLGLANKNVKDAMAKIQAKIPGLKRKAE
UniProt P56817, residues 46-501: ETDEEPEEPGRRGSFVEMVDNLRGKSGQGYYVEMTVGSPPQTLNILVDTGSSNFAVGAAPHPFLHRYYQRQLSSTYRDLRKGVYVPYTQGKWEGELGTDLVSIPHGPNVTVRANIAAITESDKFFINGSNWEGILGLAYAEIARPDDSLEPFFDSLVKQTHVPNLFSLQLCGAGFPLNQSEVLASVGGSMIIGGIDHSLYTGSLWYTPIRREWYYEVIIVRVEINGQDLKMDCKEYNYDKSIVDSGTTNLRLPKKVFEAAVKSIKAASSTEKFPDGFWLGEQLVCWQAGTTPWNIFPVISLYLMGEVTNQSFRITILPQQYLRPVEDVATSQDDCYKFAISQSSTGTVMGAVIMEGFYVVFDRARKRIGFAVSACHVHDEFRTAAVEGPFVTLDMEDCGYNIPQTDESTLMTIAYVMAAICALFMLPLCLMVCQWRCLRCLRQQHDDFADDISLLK

Assay [1] deals with Flag-RTN4B (Reticulon 4B) (UniProt Q9NQC3). The assay is described as follows: co-IP; HA- and Flag-tagged proteins transiently transfected into 293T cells; whole-cell lysates incubated with HA or Flag antibody overnight at 4 °C, protein A/G agarose beads 3 hr at 4 °C, washed with lysis buffer; western blot with HA or Flag antibodies. A general note: A western blot detects proteins with antibodies after separation by electrophoresis.

In the next assay the target is HA-BACE1 (β‐secretase 1) (UniProt P56817). The description is as above.
For a further assay, the target named is T1, HA-SIRT2 (Sirtuin 2) (UniProt Q8IXJ6).
T1 sequence: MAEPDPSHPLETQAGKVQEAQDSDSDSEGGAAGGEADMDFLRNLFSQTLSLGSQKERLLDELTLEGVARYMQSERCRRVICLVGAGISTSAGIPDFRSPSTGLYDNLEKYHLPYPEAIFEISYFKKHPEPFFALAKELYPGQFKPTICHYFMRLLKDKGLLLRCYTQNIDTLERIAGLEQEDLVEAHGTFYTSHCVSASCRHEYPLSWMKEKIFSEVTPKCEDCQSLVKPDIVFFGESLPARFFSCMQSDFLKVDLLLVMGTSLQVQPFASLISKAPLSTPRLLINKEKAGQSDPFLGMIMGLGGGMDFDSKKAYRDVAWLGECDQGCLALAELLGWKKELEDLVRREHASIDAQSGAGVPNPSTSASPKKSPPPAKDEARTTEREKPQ
The assay is described as above.

In assay [2] the target is Flag-RTN4A (Reticulon 4A) (UniProt Q9NQC3). The assay is described as follows: co-IP; Co-IP of SIRT2 with the three RTN4 isoforms (Appendix S1, Figure S7); cells, tags and bait not shown.
In assay [3] the target is Flag-RTN4B (Reticulon 4B) (UniProt Q9NQC3). Described as above.

“HA-BACE1 (β‐secretase 1) (from UniProt P56817 46-501) (enzyme)”: the binding result in assay [1] is reported as “binds”.

Take “Flag-RTN4B (Reticulon 4B) (from UniProt Q9NQC3-2 1-373)”: the binding entry in the assay with HA-BACE1 (β‐secretase 1) and with HA-SIRT2 (Sirtuin 2) was “binds” throughout.

B1: HA-SIRT2 (Sirtuin 2) (enzyme, UniProt Q8IXJ6 1-389)
chain: MAEPDPSHPLETQAGKVQEAQDSDSDSEGGAAGGEADMDFLRNLFSQTLSLGSQKERLLDELTLEGVARYMQSERCRRVICLVGAGISTSAGIPDFRSPSTGLYDNLEKYHLPYPEAIFEISYFKKHPEPFFALAKELYPGQFKPTICHYFMRLLKDKGLLLRCYTQNIDTLERIAGLEQEDLVEAHGTFYTSHCVSASCRHEYPLSWMKEKIFSEVTPKCEDCQSLVKPDIVFFGESLPARFFSCMQSDFLKVDLLLVMGTSLQVQPFASLISKAPLSTPRLLINKEKAGQSDPFLGMIMGLGGGMDFDSKKAYRDVAWLGECDQGCLALAELLGWKKELEDLVRREHASIDAQSGAGVPNPSTSASPKKSPPPAKDEARTTEREKPQ
For the molecule B1, the binding result is “binds” in assay [1], “binds weakly” in assay [2] and “binds” in assay [3].

The values are drawn from paper PMC7431833.
